These are yes or no findings as the source states them, for the method shown. In cells and extracts the contact can be indirect. Some entries that bind do so weakly or less than the wild type.

Chains of the proteins cited; added tags and fusions are not shown.
UniProt Q01147: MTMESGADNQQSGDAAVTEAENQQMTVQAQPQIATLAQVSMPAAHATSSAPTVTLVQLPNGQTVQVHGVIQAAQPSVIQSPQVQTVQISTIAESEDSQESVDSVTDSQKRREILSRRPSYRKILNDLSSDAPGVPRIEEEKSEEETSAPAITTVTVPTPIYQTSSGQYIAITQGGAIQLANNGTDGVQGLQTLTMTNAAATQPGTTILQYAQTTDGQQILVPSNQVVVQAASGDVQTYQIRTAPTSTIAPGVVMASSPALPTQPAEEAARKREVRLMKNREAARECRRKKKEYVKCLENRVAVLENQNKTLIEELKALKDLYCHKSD

The experiment has as its target T1, Foxp3 (mouse (endogenous in T cells of WT mice)) (UniProt Q99JB6).
T1 sequence: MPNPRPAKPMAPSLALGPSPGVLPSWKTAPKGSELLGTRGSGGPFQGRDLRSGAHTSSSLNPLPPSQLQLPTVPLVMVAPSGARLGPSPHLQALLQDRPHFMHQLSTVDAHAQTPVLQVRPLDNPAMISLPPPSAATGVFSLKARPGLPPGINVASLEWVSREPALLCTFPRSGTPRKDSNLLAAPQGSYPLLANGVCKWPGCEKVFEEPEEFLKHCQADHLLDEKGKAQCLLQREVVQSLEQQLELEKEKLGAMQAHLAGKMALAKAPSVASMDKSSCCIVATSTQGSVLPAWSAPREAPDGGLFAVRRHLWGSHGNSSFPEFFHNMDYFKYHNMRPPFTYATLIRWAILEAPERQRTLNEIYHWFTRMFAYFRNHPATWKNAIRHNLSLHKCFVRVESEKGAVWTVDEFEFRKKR
Briefly: co-IP.

As to “cAMP response element binding protein CREB (from UniProt Q01147 1-327)”, the binding result is given as “binds”.

B1: CREM (protein, UniProt P27699 1-357)
chain: MSKCGRKKYMRTNVRQMTMETVESQQDRSVTRSVAEHSSAHMQTGQISVPTLAQVSVAGSGTGRGSPAVTLVQLPSGQTVQVQGVIQTPHPSVIQSPQIQTVQVATIAETDDSADSEVIDSHKRREILSRRPSYRKILNELSSDVPGIPKIEEEKSEEEGTPPNIATMAVPTSIYQTSTGQYIAIAQGGTIQISNPGSDGVQGLQALTMTNSGAPPPGATIVQYAAQSADGTQQFFVPGSQVVVQDEETDLAPSHMAAATGDMPTYQIRAPTTALPQGVVMAASPGSLHSPQQLAEEATRKRELRLMKNREAAKECRRRKKEYVKCLESRVAVLEVQNKKLIEELETLKDICSPKTD
In the case of B1, the binding entry is listed as “binds”.

The record behind these values is publication doi:10.1101/2024.06.29.601312.
